No constants are given. Whether binding was seen depends on the method and setting. Binding can be weak; no strength is given. Tags and fused reporters may be left off the sequences shown. For some assays here: Binding seen in cells or lysates may run through a third protein.
B1: AtTT2 (full length) in the AD plasmid pGADT7 (protein, UniProt Q9FJA2 1-258)
chain: MGKRATTSVRREELNRGAWTDHEDKILRDYITTHGEGKWSTLPNQAGLKRCGKSCRLRWKNYLRPGIKRGNISSDEEELIIRLHNLLGNRWSLIAGRLPGRTDNEIKNHWNSNLRKRLPKTQTKQPKRIKHSTNNENNVCVIRTKAIRCSKTLLFSDLSLQKKSSTSPLPLKEQEMDQGGSSLMGDLEFDFDRIHSEFHFPDLMDFDGLDCGNVTSLVSSNEILGELVPAQGNLDLNRPFTSCHHRGDDEDWLRDFTC
B2: AtTT2 in the plasmid 35S::cLuc (fused with the C-terminus of luciferase) (protein, UniProt Q9FJA2 1-258)
chain: B1 chain

Tests used:
[1] = biological target: AcB2 (full length, 1–615 aa) in the BD plasmid pGBKT7 (Allium cepa (onion)); experiment: two-hybrid; AcB2 and its truncated fragments in pGBKT7 (BD, bait), AcMYB1 or AtTT2 in pGADT7 (AD); yeast strain AH109; spotted on medium lacking Trp, Leu, His and Ade, 3 days at 30°C
[2] = biological target: AcB2 fused with the N-terminus of luciferase (nLUC) (Allium cepa (onion)); experiment: split reporter; luciferase complementation imaging; AcB2 in 35S::nLuc, AcMYB1 or AtTT2 in 35S::cLuc, co-infiltrated into N. benthamiana leaves; CCD camera

Binder	binding [1]	binding [2]
B1	binds	–
B2	–	binds
